PubChem BioAssay AID624291 (National Center for Advancing Translational Sciences (NCATS), 2012)
Out of some 350,000 compounds screened, about 220 (0.063%) were called active. All entries are inconclusive by the source's own rule. Clear calls are listed elsewhere. Calls follow the shape of the dose curve; as a rule, active = well fitted activation curve with a large enough effect; inconclusive = small, poorly fitted or top-dose-only effect; inactive = no such curve, though single readings can be large or run the other way.

Experiment: qHTS for Activators of Integrin-Mediated Alleviation for Muscular Dystrophy; also: nearly all actives have a fitted effect of over 60% in size
Conditions: alpha7betagal myoblasts, beta-gal FDG fluorescence, 48 h
Potency is read from the fitted curve at half-maximal effect.

| Structure (SMILES) | Potency |
| --- | --- |
| Cc1cc(C)cc(OP(C)(=O)Nc2ccc(SC(F)(F)F)cc2)c1 (stereo not drawn) | inconclusive: 2.51 µM |
| CP(=O)(Nc1ccccc1F)Oc1ccccc1 (stereo not drawn) | inconclusive: 12.6 µM |
| O=[N+]([O-])c1ccc(OP2(=O)COCCO2)cc1 (stereo not drawn) | inconclusive: 31.6 µM |
